A: 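Whole-cell assay for inhibitors of Mycobacterium tuberculosis growth, labelled Cornell in the record; the read-out is not stated. The concentration is filed as 10 mM, unlikely as a test dose, so the dose is not known. The record gives no direction; compounds strong in two other growth screens of this library score well above the rest, so higher reads as stronger inhibition. About 53,000 compounds were tested under these conditions; 1.7% (about 900) showed 50% or more at least once.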
B: 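Assay on Mycobacterium tuberculosis, filed only as a heat shock assay from Cornell; the read-out is not stated. The concentration is filed as 10 mM, unlikely as a test dose, so the dose is not known. Direction is inferred from retests: higher values go with stronger inhibition. Of about 69,000 compounds tested this way, about 930 (1.4%) reached 50% or more in at least one test.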

The filed quantity is “Percent Effect” (%).
How 0% and 100% were set is not recorded. Most values in the screen are low, and negative values occur.
The compounds are a random part of those screened.

Cc1nc(CN2CCCn3cnc(COCC4CC4)c3C2)cs1.O=C(O)C(F)(F)F read A: 19.91%; B: -36.39%. With O=C(c1ccccc1OCC1CC1)N1CCCC1Cn1cccn1 (centres unmarked) the screen gave A: -13.65%; B: -20.31%. CN(C)C(=O)NCC(=O)N1CCCC2(CCC(=O)N(CC3CC3)C2)C1 (centres unmarked) read B: 17.52%. With OCCN1CCc2[nH]nc(C(c3ccccc3)c3ccccc3)c2C1 the screen gave A: -19.16%; B: -12.35%. Result for Cn1nc(C(=O)N2CCOCC2)cc1C(=O)Nc1cc(Cl)cc(Cl)c1 was B: -1.191%.

Result for Cc1nc(CCNC(=O)NC(C)c2ccc3c(c2)OCCO3)cs1 (centres unmarked) was A: -7.5%; B: 6.43%. With O=C(CNc1cc(F)ccc1OC(F)F)NCC(F)(F)F the screen gave A: 3.384%; B: 4.319%. Result for CN(C)CCN1CCN(Cc2cccs2)Cc2cccnc21.O=C(O)C(F)(F)F.O=C(O)C(F)(F)F.O=C(O)C(F)(F)F was B: -18.56%. Cc1cccc(CO[C@@H]2CO[C@@]3(CCN(S(=O)(=O)N(C)C)C3)C2)n1.O=C(O)C(F)(F)F gave A: -15.4%; B: -20.33%. Cc1ncsc1CCN(C)C(=O)c1ncccc1O gave A: 0.6312%; B: -3.633%.

For Cc1nn(-c2ccccc2)cc1C(=O)N1CCCN2CCCC2C1 (centres unmarked) the result was B: 3.636%. CC(C)(C)C(N)c1nc(-c2nnc[nH]2)no1 (centres unmarked) gave A: -8.04%; B: -21.46%. For Cn1cc(CN2CCCC23CCN(C(=O)c2ccccc2)CC3)cn1.O=C(O)C(F)(F)F the result was A: 2.033%; B: -27.87%. With CCN1CCC(NC(=O)CNC(C)Cn2cccn2)CC1 (centres unmarked) the screen gave B: -5.357%. Result for Cc1cnc(N2CCOC3(CCCN(CC(=O)N(C)C)C3)C2)nc1.O=C(O)C(F)(F)F.O=C(O)C(F)(F)F (centres unmarked) was A: 23.8%; B: -13.39%.

For COc1ccc(C[C@H]2CN(C(=O)c3ccncc3)CC[C@@H]2OC)cc1.O=C(O)C(F)(F)F the result was A: 0.08197%; B: -32.6%. CN1CCNC(=O)C12CCN(C(=O)c1ccc3[nH]c(=O)[nH]c3c1)CC2 gave A: 11.86%; B: 10.92%. Result for Cc1nc(Nc2nnc(C)s2)cc(C2CCCN2C)n1 (centres unmarked) was B: -5.684%. For O=C(Nc1nccs1)N(CCO)Cc1ccsc1 the result was B: -3.937%. Cc1nn(C)c(N(C)C)c1CNC1CCCCNC1=O (centres unmarked) read A: 63.11%; B: -28.8%.

With NC(=O)C1CCN(CCc2ccc(NC(=O)C3CCC3)cc2)CC1 the screen gave A: 17.65%; B: 8.318%. CCCn1nnnc1COC(=O)C1COc2ccccc2O1 (centres unmarked) read A: 4.142%; B: -31.11%. O=C(O)C(F)(F)F.[H][C@]12CCC[C@@]1(COc1ccccn1)CN(C(=O)c1ncccn1)C2 read A: -0.9925%; B: -12.03%. COCc1cc(O)nc(C2CCCN(Cc3ccc(OC)cc3)C2)n1 (centres unmarked) gave B: -4.768%. Cc1ccc(CN2CCc3ncc(CNS(C)(=O)=O)n3CC2)o1.O=C(O)C(F)(F)F read A: 42.86%; B: -31.98%.

The values are deposited in ChEMBL (CHEMBL3988442, “University of Dundee, Small-Polar-MMV Screening Library” (2021)).